Here are results for three substances from article PMC3676459.

The chains behind the UniProt entries cited, without tags or fusion partners. Where a name states a change or a piece, a line headed by the entry shows the natural chain unless it says otherwise. A line that says so, or that is headed by a name, gives the form on record, which may keep a tag or linker. Residues count along the entry.
UniProt Q7TQN4: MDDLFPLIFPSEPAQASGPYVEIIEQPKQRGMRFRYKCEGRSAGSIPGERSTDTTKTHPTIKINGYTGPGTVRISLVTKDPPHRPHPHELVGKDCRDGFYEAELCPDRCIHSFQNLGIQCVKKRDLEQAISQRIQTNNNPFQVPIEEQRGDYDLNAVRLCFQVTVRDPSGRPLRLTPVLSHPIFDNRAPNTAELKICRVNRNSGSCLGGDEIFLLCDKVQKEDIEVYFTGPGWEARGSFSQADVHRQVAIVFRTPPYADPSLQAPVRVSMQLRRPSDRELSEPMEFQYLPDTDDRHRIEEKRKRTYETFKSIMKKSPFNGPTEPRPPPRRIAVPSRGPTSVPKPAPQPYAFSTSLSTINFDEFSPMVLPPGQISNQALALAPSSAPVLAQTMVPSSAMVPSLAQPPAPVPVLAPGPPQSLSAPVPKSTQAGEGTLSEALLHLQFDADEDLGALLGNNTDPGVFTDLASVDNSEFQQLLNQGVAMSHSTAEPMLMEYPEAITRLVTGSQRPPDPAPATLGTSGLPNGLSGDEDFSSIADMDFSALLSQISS
UniProt P11142: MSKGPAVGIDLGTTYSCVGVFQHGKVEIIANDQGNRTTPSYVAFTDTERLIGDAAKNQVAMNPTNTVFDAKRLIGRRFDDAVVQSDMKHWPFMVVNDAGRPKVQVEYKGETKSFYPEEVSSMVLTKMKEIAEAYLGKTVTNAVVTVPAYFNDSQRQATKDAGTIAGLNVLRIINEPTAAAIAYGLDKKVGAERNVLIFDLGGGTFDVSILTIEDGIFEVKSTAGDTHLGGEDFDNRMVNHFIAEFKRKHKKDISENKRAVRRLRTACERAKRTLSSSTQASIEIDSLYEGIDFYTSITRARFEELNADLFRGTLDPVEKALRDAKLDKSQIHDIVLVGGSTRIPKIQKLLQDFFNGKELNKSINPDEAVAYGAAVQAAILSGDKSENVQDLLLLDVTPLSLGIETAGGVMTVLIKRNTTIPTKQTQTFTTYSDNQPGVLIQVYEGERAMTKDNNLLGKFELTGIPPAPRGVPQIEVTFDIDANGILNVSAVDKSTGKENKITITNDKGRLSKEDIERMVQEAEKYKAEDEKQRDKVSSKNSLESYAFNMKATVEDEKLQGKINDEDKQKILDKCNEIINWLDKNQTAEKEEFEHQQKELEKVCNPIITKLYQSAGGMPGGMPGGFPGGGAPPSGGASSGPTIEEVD
myc-tagged Hsc70 Phe68mut (pcDNA3.1(+)c-myc-HSC70mut) (P11142, form named): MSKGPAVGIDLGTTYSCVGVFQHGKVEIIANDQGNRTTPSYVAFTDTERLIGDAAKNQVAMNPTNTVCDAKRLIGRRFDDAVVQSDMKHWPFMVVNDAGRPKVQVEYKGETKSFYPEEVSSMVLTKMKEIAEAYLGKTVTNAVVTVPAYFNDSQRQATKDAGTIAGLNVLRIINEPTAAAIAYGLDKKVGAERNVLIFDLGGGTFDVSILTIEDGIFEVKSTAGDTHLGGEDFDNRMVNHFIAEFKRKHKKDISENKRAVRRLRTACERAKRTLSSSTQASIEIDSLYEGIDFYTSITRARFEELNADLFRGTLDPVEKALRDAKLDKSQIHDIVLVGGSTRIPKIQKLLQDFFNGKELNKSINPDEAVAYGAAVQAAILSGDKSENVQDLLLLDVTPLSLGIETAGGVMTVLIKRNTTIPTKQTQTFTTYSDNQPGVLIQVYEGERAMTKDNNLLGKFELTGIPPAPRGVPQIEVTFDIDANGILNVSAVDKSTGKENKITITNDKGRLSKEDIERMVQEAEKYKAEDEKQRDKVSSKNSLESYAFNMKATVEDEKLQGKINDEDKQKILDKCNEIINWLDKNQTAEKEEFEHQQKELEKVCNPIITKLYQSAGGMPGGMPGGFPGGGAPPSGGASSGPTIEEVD
UniProt P63018: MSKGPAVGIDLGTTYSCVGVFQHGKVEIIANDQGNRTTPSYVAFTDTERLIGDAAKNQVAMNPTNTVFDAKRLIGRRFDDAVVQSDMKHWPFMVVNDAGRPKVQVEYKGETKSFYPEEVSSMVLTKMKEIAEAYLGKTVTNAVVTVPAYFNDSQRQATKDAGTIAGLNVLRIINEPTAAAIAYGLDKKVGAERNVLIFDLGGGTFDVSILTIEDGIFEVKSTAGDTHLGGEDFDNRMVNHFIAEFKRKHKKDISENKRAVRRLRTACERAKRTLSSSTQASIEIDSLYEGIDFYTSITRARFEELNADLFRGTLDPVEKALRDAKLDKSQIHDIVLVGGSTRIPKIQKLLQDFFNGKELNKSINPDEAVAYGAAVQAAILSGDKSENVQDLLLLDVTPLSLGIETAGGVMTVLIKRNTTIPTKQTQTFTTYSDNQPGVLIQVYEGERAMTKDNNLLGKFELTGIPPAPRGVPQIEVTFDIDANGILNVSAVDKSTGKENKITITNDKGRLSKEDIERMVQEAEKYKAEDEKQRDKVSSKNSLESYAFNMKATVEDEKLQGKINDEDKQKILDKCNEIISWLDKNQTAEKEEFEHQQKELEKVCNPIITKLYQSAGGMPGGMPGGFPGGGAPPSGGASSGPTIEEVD
UniProt Q63369, residues 1-483: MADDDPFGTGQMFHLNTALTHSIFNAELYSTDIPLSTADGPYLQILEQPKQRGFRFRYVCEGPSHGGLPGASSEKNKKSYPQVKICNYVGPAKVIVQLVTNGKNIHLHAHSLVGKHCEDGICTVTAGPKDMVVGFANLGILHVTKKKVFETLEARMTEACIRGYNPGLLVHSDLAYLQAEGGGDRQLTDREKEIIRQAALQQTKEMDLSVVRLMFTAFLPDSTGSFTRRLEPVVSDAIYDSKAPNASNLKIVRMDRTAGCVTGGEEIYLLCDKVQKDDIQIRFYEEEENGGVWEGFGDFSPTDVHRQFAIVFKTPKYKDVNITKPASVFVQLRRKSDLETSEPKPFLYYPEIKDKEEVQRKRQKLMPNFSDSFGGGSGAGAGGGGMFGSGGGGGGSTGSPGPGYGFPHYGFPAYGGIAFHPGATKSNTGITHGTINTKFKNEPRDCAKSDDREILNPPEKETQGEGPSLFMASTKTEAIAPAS
UniProt Q04206: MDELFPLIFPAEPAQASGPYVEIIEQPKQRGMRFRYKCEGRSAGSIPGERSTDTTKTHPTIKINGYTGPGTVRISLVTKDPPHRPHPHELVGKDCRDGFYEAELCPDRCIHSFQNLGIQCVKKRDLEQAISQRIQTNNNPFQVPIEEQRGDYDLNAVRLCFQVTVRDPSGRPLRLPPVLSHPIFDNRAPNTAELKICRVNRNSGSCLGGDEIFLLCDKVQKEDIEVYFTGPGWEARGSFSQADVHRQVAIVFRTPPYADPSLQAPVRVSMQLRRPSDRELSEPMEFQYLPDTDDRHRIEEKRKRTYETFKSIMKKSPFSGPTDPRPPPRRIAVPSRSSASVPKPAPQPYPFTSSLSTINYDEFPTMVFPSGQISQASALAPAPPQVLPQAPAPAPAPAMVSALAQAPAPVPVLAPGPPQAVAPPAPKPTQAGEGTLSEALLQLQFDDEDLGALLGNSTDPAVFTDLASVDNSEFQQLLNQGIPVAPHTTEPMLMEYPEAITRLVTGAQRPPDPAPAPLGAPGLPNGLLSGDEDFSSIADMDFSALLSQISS

Experiment [1] deals with NF-κB p65 (endogenous, cultured hippocampal neurons) (rat (endogenous in hippocampal neurons)) (UniProt Q7TQN4). Kind of experiment: proximity ligation; in situ PLA (Duolink II) on fixed (4% PFA), permeabilised cultured hippocampal neurons with two primary antibodies; spots counted in neurites, cell bodies and nuclei; also after treatment with DSG and glutamate (nuclear signals reduced with DSG).

Experiment [2] has as its target myc-tagged Hsc70 (pcDNA3.1(+)c-myc-HSC70) (UniProt P11142). The experiment in a line: co-IP; lysates of co-transfected HEK293FT cells, IP with anti-c-Myc antibody, without cross-linker, in presence of 10 µM or 100 µM ATP, 4°C; blot anti-Flag.
The target in experiment [3] is T1, myc-tagged IκBε (pCMV c-myc-Iκε) (UniProt O00221).
T1 sequence: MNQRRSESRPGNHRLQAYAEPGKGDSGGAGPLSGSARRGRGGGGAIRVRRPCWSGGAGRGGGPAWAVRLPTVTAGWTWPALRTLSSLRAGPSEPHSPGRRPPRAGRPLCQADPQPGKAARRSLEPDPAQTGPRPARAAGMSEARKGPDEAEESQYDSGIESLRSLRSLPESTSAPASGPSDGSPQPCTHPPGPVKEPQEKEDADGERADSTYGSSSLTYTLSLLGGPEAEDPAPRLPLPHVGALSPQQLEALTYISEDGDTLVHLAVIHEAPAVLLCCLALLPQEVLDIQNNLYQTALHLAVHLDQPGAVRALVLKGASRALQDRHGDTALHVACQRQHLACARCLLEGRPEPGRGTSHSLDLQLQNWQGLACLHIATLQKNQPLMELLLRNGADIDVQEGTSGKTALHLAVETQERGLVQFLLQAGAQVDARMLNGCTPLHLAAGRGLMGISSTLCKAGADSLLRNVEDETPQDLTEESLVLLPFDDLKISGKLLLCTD
The experiment in a line: co-IP; lysates of co-transfected HEK293FT cells, IP with anti-c-Myc antibody, without cross-linker and without ATP, 4°C (Figure 2B; samples without cross-linker of Figure 1C); blot anti-Flag.

For experiment [4], the target named is myc-tagged Hsc70 (pcDNA3.1(+)c-myc-HSC70) (UniProt P11142). Kind of experiment: co-IP; lysates of co-transfected HEK293FT cells, IP with rabbit anti-c-Myc antibody on protein A sepharose for 2 h, in presence of cross-linker (0.5 mg/ml DSP), with or without 3.3 mg axon enriched porcine brain extract and with or without ATP; lysis buffer 50 mM HEPES, 150 mM NaCl, 1% NP-40, pH …; blot anti-Flag.

Experiment [5] has as its target myc-tagged Hsc70 Phe68mut (pcDNA3.1(+)c-myc-HSC70mut) (UniProt P11142). The description is as above.
Experiment [6] has as its target T1, myc-tagged IκBε (pCMV c-myc-Iκε). The description is as above.
Experiment [7] concerns the target myc-tagged Hsc70 (pcDNA3.1(+)c-myc-HSC70) (UniProt P11142). Kind of experiment: condition: only without cross-linker and without ATP at 4°C; co-IP; lysates of co-transfected HEK293FT cells, IP with anti-c-Myc antibody, without cross-linker and without ATP, 4°C (Figure 2B; samples without cross-linker of Figure 1C); blot anti-Flag.
For experiment [8] the target is unchanged. Kind of experiment: co-IP; lysates of co-transfected HEK293FT cells, IP with anti-c-Myc antibody performed at 37°C, without cross-linker, even without ATP; blot anti-Flag.

These are yes or no findings as the source states them, for the method shown. Binding seen in cells or lysates may run through a third protein. Some entries that bind do so weakly or less than the wild type. For part of these data: Where a sequence is shown, tags or fusion partners need not be part of it.

With “Hsc70 (endogenous, cultured hippocampal neurons) (from UniProt P63018 1-646)”, the binding result in experiment [1] was “binds”.
For “NF-κB p50 (endogenous, cultured hippocampal neurons) (from UniProt Q63369 1-483)”, the binding result in experiment [1] is given as “binds”.
Regarding “flag-tagged NF-κB p65 (pEF-FLAGpGKpuro p65WT) (from UniProt Q04206 1-551)”, the binding entry in experiment [2] was “binds weakly”; in experiment [3] it was “no binding (condition: without cross-linker)”; in experiment [4] it was “binds”; in experiment [5] it was “no binding”; in experiment [6] it was “binds”; in experiment [7], “no binding”. For the same substance, the binding entry in experiment [8] is given as “binds”.
